Assay results reported in paper PMC7893028.
Results are given in words; binding and its absence hold for the method and conditions named. In cells and extracts the contact can be indirect. Some entries that bind do so weakly or less than the wild type. Where a sequence is shown, tags or fusion partners need not be part of it.

Amino acid sequences for entries named in this document (tags omitted). Residues count along the entry.
UniProt O15455, residues 24-904: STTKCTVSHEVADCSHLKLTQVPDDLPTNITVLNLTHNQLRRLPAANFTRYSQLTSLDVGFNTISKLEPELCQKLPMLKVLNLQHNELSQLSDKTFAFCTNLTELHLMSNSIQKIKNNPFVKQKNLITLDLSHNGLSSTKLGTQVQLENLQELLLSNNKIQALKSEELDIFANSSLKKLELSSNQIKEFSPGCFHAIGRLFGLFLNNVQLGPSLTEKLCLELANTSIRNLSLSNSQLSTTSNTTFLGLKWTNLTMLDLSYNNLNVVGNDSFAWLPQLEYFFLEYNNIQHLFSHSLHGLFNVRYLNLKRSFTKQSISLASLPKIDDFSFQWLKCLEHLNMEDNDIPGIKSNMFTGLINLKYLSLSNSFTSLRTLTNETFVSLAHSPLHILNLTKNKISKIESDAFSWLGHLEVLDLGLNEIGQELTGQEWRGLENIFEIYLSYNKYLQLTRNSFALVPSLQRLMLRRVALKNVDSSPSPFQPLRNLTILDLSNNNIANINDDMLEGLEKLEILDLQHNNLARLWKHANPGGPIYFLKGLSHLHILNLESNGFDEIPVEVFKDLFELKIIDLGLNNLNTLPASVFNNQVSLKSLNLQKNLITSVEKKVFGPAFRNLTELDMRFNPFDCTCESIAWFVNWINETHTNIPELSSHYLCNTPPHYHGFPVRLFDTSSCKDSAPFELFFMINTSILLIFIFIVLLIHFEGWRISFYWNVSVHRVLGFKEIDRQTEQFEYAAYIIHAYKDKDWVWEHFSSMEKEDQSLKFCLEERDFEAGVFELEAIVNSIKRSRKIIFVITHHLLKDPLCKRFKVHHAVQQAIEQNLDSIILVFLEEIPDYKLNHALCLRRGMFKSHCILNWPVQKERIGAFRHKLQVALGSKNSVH

Target: T1, Flag-tagged human CLEC18A, full-length (pCMV-Tag4A-hCLEC18A) (human) (UniProt A5D8T8)
T1 sequence: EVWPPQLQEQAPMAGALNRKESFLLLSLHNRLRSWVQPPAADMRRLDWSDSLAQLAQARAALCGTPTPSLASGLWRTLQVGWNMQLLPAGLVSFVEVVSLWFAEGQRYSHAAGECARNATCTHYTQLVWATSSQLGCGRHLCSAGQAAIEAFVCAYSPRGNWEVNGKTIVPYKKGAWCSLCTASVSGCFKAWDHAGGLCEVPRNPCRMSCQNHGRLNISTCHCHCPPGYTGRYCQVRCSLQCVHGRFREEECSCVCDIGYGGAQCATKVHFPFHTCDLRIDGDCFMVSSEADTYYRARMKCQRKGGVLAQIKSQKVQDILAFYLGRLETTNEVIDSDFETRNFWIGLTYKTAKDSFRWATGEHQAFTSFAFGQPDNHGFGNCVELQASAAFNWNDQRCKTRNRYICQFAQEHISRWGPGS
Assay: co-IP; 293T cells co-transfected with Flag-CLEC18A (full-length or deletion mutants, pCMV-Tag4A) and TLR3-HA (pUNO1), 48 h; precipitated with anti-Flag mAb, blot with anti-HA and anti-Flag

binding: binds
Substance: HA-tagged human TLR3 (pUNO1-TLR3-HA) (from UniProt O15455 24-904) (receptor)
